The values are deposited in ChEMBL (CHEMBL3988442, “University of Dundee, Small-Polar-MMV Screening Library” (2021)).

Amino acid sequences for entries named in this document (tags omitted). Residues count along the entry.
UniProt P9WFT3, whole entry: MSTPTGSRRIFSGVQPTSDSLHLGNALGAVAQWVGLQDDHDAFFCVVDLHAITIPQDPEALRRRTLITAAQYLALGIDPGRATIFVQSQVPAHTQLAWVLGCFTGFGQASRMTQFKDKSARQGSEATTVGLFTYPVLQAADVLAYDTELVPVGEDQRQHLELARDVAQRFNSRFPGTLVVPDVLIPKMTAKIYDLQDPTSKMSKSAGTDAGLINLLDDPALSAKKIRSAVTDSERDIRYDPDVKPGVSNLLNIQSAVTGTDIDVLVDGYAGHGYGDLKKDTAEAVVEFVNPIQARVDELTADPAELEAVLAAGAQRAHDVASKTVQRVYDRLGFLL
UniProt I6X8D2, whole entry: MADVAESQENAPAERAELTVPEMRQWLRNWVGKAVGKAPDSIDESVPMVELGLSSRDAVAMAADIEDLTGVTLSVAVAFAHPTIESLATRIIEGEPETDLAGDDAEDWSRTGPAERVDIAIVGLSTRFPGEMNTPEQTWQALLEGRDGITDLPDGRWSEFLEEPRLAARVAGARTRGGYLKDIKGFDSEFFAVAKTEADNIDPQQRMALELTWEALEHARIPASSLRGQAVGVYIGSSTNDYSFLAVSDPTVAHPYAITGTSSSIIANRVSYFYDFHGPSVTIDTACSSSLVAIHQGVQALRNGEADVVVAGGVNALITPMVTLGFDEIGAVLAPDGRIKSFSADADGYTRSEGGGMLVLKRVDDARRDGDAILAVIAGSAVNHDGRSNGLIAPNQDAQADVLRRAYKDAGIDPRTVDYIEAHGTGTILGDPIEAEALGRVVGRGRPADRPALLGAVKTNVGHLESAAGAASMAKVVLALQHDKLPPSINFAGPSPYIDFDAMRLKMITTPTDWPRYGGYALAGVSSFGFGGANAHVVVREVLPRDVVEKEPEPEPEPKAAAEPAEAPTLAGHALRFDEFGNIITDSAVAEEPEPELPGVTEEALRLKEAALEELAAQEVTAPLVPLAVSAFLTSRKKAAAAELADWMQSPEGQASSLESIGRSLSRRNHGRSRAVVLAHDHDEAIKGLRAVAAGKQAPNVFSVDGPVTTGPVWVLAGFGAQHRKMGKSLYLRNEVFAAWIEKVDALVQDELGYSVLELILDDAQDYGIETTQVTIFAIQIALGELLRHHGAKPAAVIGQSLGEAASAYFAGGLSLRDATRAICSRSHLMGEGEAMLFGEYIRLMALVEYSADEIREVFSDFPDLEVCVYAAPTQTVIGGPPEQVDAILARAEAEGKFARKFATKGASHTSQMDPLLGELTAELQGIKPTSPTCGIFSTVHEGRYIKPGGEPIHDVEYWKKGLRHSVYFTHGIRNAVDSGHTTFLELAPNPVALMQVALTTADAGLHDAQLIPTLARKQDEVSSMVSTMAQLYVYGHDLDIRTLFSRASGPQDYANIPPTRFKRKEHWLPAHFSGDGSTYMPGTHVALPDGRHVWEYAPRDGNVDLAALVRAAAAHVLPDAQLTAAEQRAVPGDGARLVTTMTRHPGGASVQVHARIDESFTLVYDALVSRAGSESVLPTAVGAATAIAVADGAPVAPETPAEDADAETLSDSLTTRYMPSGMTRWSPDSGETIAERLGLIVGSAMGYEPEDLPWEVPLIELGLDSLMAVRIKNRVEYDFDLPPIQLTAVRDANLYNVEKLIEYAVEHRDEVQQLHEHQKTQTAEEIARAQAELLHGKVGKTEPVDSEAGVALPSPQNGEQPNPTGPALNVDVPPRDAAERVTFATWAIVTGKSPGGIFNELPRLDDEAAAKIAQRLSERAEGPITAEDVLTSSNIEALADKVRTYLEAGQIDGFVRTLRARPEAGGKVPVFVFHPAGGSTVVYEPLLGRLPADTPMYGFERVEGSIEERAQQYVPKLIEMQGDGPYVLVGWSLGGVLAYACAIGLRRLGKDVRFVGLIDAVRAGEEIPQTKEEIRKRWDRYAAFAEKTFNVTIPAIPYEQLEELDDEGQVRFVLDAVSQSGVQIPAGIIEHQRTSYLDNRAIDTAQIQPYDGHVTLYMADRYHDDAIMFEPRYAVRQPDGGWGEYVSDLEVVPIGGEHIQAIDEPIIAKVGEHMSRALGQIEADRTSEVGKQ
UniProt A4I591, 1-473: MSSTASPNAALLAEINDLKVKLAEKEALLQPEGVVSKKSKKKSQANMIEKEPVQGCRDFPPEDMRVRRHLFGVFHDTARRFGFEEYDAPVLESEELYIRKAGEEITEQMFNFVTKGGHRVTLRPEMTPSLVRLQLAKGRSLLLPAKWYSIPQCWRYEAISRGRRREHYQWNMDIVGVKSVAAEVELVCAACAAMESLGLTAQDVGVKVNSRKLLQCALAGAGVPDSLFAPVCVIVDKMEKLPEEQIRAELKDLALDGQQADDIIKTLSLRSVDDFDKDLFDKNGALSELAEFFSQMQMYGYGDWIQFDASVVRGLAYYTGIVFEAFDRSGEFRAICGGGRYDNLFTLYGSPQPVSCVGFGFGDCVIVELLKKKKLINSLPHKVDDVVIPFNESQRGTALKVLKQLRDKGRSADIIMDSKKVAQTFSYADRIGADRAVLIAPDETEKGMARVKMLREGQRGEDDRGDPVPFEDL
UniProt Q4DA54, 1-478: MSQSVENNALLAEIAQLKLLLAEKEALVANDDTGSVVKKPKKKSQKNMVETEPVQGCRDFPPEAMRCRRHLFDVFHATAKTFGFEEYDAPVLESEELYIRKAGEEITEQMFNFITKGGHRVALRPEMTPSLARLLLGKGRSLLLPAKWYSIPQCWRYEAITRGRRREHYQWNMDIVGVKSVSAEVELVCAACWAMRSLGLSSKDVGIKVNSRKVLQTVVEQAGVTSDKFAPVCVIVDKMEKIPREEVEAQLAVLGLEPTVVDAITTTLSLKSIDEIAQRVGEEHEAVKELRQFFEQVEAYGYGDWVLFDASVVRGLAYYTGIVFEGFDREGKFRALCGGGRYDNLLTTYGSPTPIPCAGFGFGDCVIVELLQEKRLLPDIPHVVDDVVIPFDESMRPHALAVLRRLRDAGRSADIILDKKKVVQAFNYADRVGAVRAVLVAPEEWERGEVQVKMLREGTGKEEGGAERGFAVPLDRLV

MtTrpRS: 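Enzyme assay of tryptophanyl-tRNA synthetase; the read-out is not stated. Target: Tryptophan-tRNA ligase, Mycobacterium tuberculosis (UniProt P9WFT3). Compounds at 10 µM. Higher most likely means stronger inhibition; the record gives no direction and few retests gave an IC50. Of about 65,000 compounds tested this way, about 64 (0.098%) reached 50% or more in at least one test.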
Pks13 thioesterase: 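Enzyme assay of the thioesterase domain of polyketide synthase 13; the read-out is not stated. Target: Polyketide synthase Pks13, Mycobacterium tuberculosis (UniProt I6X8D2). Concentration: 30 µM. Higher reads as stronger inhibition (inferred from which compounds were picked for retests). Size under these conditions: about 67,000 compounds, about 300 of them at 50% or above in at least one test.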
LiHisRS: 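Enzyme assay of histidyl-tRNA synthetase; the read-out is not stated. Target: Histidine-tRNA ligase, Leishmania infantum (UniProt A4I591). Concentration: 30 µM. The record gives no direction; compounds that gave an IC50 in retests scored well above the rest, so higher reads as stronger inhibition. The assay is labelled LdHisRS but filed under L. infantum. About 69,000 compounds were tested under these conditions; 0.6% (about 410) showed 50% or more at least once.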
TcHisRS: 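Histidine-tRNA ligase, Trypanosoma cruzi CL Brener (UniProt Q4DA54). Enzyme assay of histidyl-tRNA synthetase; the read-out is not stated. Compounds at 30 µM. Direction is inferred from retests: higher values go with stronger inhibition. Size under these conditions: about 69,000 compounds, about 31 of them at 50% or above in at least one test.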

Each number is a percent effect as filed. The record does not define 0% and 100%; most values in the screen are far below 50% and negative numbers occur (in some assays of this library far below -100). Compounds were drawn at random from those tested, without regard to their results. A dash means the value is not listed here; it may have been measured.

| Compound | MtTrpRS | Pks13 thioesterase | LiHisRS | TcHisRS |
|---|---|---|---|---|
| `CN(c1ccccc1C(=O)O)S(=O)(=O)c1cccc2cccnc12` | -3.865 | -0.9762 | -11.76 | 10.05 |
| `COc1ccc2c(c1)c(-c1nc(C)ncc1CN)cn2C` | 13.6 | -1.608 | 1.429 | 1.149 |
| `CC(C)c1nnc2n1CC(CNCc1nc3ccccc3s1)CC2` (stereo unspecified) | 3.011 | -15.17 | 5.31 | 6.14 |
| `Cc1nc(N2CCCC2)nc(C)c1NS(=O)(=O)c1ccccc1F` | -4.939 | -32.03 | 5.217 | 2.062 |
| `Clc1snnc1CN1CCCC1Cn1cncn1` (stereo unspecified) | 27.28 | -20.24 | 5.085 | 1.143 |
| `Cc1cncc(C(=O)N2CCC3(CC2)NC(=O)CC3c2ccccc2)c1` (stereo unspecified) | -8.971 | -21.63 | 14.71 | 7.882 |
| `Cc1nc(CCCNC(=O)c2cc(F)ccc2O)n[nH]1` | -0.8639 | 6.959 | 9.524 | 3.96 |
| `CCOc1ccc(CN2CC[C@H]3CC[C@@H](C2)N3)cc1CO` | 1.097 | -5.465 | 24.49 | 10.26 |
| `CNC(=O)N1CCN(C(=O)N(C)C)CC2(CC(=O)N(C)C2)C1` (stereo unspecified) | 2.905 | -10.56 | 17.95 | -3.659 |
| `Cc1ccc(C(=O)N2CCSCC2)cc1NC(=O)Cn1cncn1` | 3.701 | 7.881 | 17.14 | 2.479 |
| `Cn1ccnc1C(O)c1ccccc1N1CCN(Cc2ccsc2)CC1` (stereo unspecified) | 0.2639 | -8.625 | 2.817 | 0 |
| `CN(C)[C@@H]1CCN(C(=O)NC2CCCC2)[C@H]1Cc1cnn(C)c1` | 1.057 | -25.71 | 3.65 | -0.5464 |
| `Cc1cc2[nH]c(CN3CCOC(Cc4ccccc4)C3)cc(=O)n2n1` (stereo unspecified) | -3.457 | -57.06 | 15.56 | 21.43 |
| `CCN(CC)C(=O)CN1CCc2nc(C3CCNCC3)nc(NC)c2C1` | -5.355 | -1.972 | 12.77 | 3.876 |
| `Cc1ccccc1C(=O)N1CCOCC1CN(C)C` (stereo unspecified) | 3.127 | -27.87 | 6.612 | 1.02 |
| `Cn1cc(CN2CCC[C@]3(C[C@H](Oc4ncccc4F)CO3)C2)cn1` | - | 0.1387 | 17.31 | 5.028 |
| `CCC(O)Cn1nc(-c2ccc(C(=O)O)cc2)cc1-c1cccc(F)c1` (stereo unspecified) | 21.9 | -19.08 | -1.408 | 0.7576 |
| `CC(=O)c1cc(C(=O)N2CC[C@@H]3CC[C@H](C2)N3C)c(=O)[nH]c1C` | -7.284 | -25.81 | -11.11 | 1.19 |
| `COc1cc(C(=O)N2CCCC(n3cncn3)C2)ccc1C` (stereo unspecified) | 0.807 | -15.91 | 4.464 | 1.734 |
| `O=C(Nc1ccc(I)cc1C(=O)NCCN1CCOCC1)c1ccco1` | -2.053 | -0.5149 | 3.101 | 0 |
| `CC(C)N[C@@H]1CC[C@@H]1NC(=O)c1ccccc1OC(F)(F)C(F)F` | -5.576 | -18.66 | -1.316 | 4.433 |
| `CCN1CCn2c(-c3cccc(F)c3)cnc2C12CCN(C(C)=O)CC2` | - | - | 3.846 | 3.911 |
| `Cc1ncnc(NC(CC(C)(C)C)c2cccnc2)c1C` (stereo unspecified) | -1.737 | 8.774 | 9.167 | 2.899 |
| `CC(=O)N(C)CCCc1cc(-c2ccccc2)no1` | -6.386 | - | 9.174 | 2.624 |
| `OCCN(Cc1nc(-c2ccc3c(c2)OCO3)no1)CC1CC1` | -5.094 | 3.239 | 2.632 | 3.911 |
| `c1ccc(CCN2C[C@@H]3OCCN(c4ncccn4)[C@@H]3C2)cc1` | 2.387 | - | 17.65 | 3.941 |
| `CC(=O)N1CC(=O)N(c2ccccc2)CC12CCN(Cc1ccsc1)C2` (stereo unspecified) | -0.3255 | -35.35 | 22.86 | 4.902 |
| `CCN(CC1CCCN(CCc2cccc(OC)c2)C1)C(=O)CO` (stereo unspecified) | -3.61 | -25.83 | 15.71 | 11.7 |
| `Cc1nc(NC(=O)CCN2C(=O)c3ccccc3NC2C(C)C)sc1C` (stereo unspecified) | -3.859 | 9.115 | 2.174 | 0.9901 |
| `O=C(Cc1ccc2c(c1)OCC2)Nc1nn[nH]n1` | -0.1898 | -8.289 | 19.57 | 7 |
| `Cc1ccc(N2CCC3(CCN(C(=O)c4ccsc4)C3)CC2)nn1` | 1.926 | 5.718 | 0.885 | 7.2 |
| `CN(C)c1cncc(C2CCN(C(=O)CO)CC2)n1` | -5.1 | -41.22 | 16.67 | -0.5405 |
| `CCN(CC)C(CNC(=O)c1c(C)noc1C(C)C)c1ccsc1` (stereo unspecified) | -10.33 | -13.19 | 8.929 | 2.907 |
| `COC(=O)c1cccc(CNC(=O)CC(F)(F)F)c1` | -5.556 | 14.71 | 20.55 | 2.956 |
| `Cn1ccnc1CN1CCC2(CC(=O)N(c3cncnc3)C2)C1` (stereo unspecified) | 2.354 | -32.13 | 7.519 | 8.287 |
| `CN(C)CCN1C(=O)CC[C@@H]2[C@H]1CCN2Cc1cccc(C#N)c1` | 0 | 1.427 | 14 | 4.902 |
| `Cc1nn(C)c(N2CCOCC2)c1CNCc1ccnn1C` | -3.26 | -13.45 | 2.655 | 4.373 |
| `Cc1noc(CN(C)CC2CCCN(CCc3ccc(Cl)cc3)C2)n1` (stereo unspecified) | 3.333 | 9.341 | 25.64 | 16.87 |
| `NC(=O)c1ccc(NC(=O)Cn2cc(-c3ccccc3)ncc2=O)cc1` | -0.7417 | -45.79 | 28.57 | 1.212 |
| `Cc1cc(C)c(CNC(=O)Cc2ccc3c(c2)CCCC3)c(=O)[nH]1` | -2.893 | -4.843 | 21.82 | 14.04 |
| `CCC1CN(CC(=O)NC(C)C)CCO1` (stereo unspecified) | 0 | -1.064 | 7.937 | -0.5128 |
| `CN1CC(=O)N(c2ccsc2)CC12CCN(C(=O)c1ccc[nH]1)C2` (stereo unspecified) | -0.8403 | -1.855 | -0.9174 | 7.563 |
| `CN(C)Cc1nn(C)c2c1CN(C(=O)c1cccc(C#N)c1)C2` | 0 | -19.39 | 13.76 | 4.327 |
| `CC(=O)N1CCO[C@@H]2CN(C(=O)c3ccc4ccccc4c3)CC[C@@H]2C1` | -9.378 | 3.866 | -10.53 | -5.747 |
| `CCCc1cc(C(=O)N2C[C@H]3CC=C(C)C[C@H]3C2)ccn1` | -1.26 | -12.45 | 19.67 | 1.01 |

For reference, 5 entries once more:

Compound,MtTrpRS,Pks13 thioesterase,LiHisRS,TcHisRS
Cc1noc(CN(C)CC2CCCN(CCc3ccc(Cl)cc3)C2)n1 (stereo unspecified),3.333,9.341,25.64,16.87
Cn1cc(CN2CCC[C@]3(C[C@H](Oc4ncccc4F)CO3)C2)cn1,-,0.1387,17.31,5.028
Cn1ccnc1CN1CCC2(CC(=O)N(c3cncnc3)C2)C1 (stereo unspecified),2.354,-32.13,7.519,8.287
Cc1ccc(N2CCC3(CCN(C(=O)c4ccsc4)C3)CC2)nn1,1.926,5.718,0.885,7.2
CCC1CN(CC(=O)NC(C)C)CCO1 (stereo unspecified),0,-1.064,7.937,-0.5128